Source: the supplement of paper PMC12578635
Some of the results follow. No stated cut-off is given here; in the data, active = 150% or more and inactive = the rest. Many values rest on one well or one pass, so single values are uncertain.

test system: Staphylococcus aureus JE2-lux inside RAW 264.7 macrophages; assay: intracellular bacterial bioluminescence relative to DMSO vehicle; higher = higher intracellular bacterial metabolic activity; details: 10 µM; treatment time 4 h; gentamicin 50 µg/ml

Intracellular bacterial bioluminescence, inactive:
CCOC(=O)c1nn(-c2ccccc2)c(=O)c2c(NC(=O)C(C)Oc3ccccc3)scc12 (stereo unspecified) 97.2%
CC1=C(C(=O)OCc2ccccc2)C(c2ccc(Cl)cc2)C(C#N)=C(N)O1 (stereo unspecified) 96.2%
O=C(NCc1ccc2c(c1)OCO2)C1CCCN1C(=O)Nc1ccc(Cl)cc1 (stereo unspecified) 97.5%
Cc1n[nH]c(SCCNCc2cc3c(C)nn(-c4ccc(F)cc4)c3[nH]c2=O)n1 102%
COc1ccccc1-n1c(SCC(=O)Nc2cccc3ccccc23)nc2c(c1=O)SCC2 13.7%
CCc1cccc(C)c1Nc1nc(N)c(C(=O)CC(C)C)s1 106%
COc1ccc(/C=C/C(=O)O)cc1S(=O)(=O)NCc1ccc2c(c1)OCO2 94.5%
O=C(Nc1ccc(F)cc1)c1c(O)c2ccccc2[nH]c1=O 121%
COc1cccc(NC(=O)CSc2nn3c(=O)c(C)nnc3s2)c1 106%
COc1cccc(NC(=O)c2ccc(COc3cccc(C)c3)o2)c1 107%
CC1(C)CC(=O)C2=C(C1)OC(N)=C(C#N)C2Cc1ccccc1 (stereo unspecified) 86.4%
O=c1c2sccc2n2c(=S)[nH]nc2n1CC1CCCO1 (stereo unspecified) 84.7%
CC(C(=O)Nc1nc2c(s1)CCc1c-2cnn1C)N1C(=O)CSC1=O (stereo unspecified) 113%
O=C(NCc1cccnc1)c1cnc2ccc(F)cc2c1O 118%
COc1cccc(-n2c(C)c(C)n3c4c(=O)n(CC(=O)OCc5ccccc5)c(=O)n(C)c4nc23)c1 77.1%
Cc1cccc(NC(=O)c2sc3nc(-c4ccccc4)cn3c2C)c1 80.5%
CN(c1ncnc(N)c1[N+](=O)[O-])C1CCCCC1 117%
Cc1ccc(CSc2nc(=O)n3ccc(C)cc3n2)cc1 51.4%
Cc1cc(C)n2c(SCC(=O)Nc3cccc4ccccc34)nnc2n1 72.2%
Cc1cc2ccccc2n2c(=O)n(CC(C)NC(=O)c3ccc(C(N)=O)cc3F)nc12 (stereo unspecified) 77.4%
CC(=O)Nc1ccc(C(=O)CSc2nc(O)c3c(C)cc(C)nc3n2)cc1 130%
Oc1cccc(C2=NN3C(C2)c2ccccc2OC3c2ccccn2)c1 (stereo unspecified) 86.9%
Cc1ccc(NC(=O)c2cc(=O)c3ccccc3o2)c(C(=O)c2ccccc2)c1 102%
Cc1ccc(C2NC(=O)NC3=C2C(=O)CC(C)(C)C3)cc1 (stereo unspecified) 87.9%
COc1cc(/C=C2/S/C(=N/c3ccc(C)cc3)NC2=O)cc(OC)c1OC 90.6%
Cn1c2ccc(Br)cc2c2nnc(SCC(=O)NCc3ccccc3)nc21 83.8%
CCOc1ccc(-n2nnnc2CNS(=O)(=O)c2ccc(F)cc2F)cc1 54.4%
CS(=O)(=O)c1ccc(S(=O)CC(=O)Oc2ccc(C3CCCCC3)cc2)c([N+](=O)[O-])c1 (stereo unspecified) 102%
CC(=O)CC1(O)C(=O)N(CCOc2ccccc2)c2ccccc21 (stereo unspecified) 137%
CC(=O)c1csc(NC(=O)Cn2nc(C(F)(F)F)c3c2CCCC3)n1 92.1%
CCS(=O)(=O)N1CCC(n2cnc3cccnc32)CC1 115%
CN1C(=O)/C(=N/NCc2ccccc2)c2ccccc21 92.7%
CC(=O)Nc1ccc(S(=O)(=O)Nc2ccc3c(c2)CCC(=O)N3)c(C)c1 88%
Cc1nc(Oc2ccc(F)cc2)c2c(C)c(C)sc2n1 98.5%
Cc1ccccc1-c1noc(-c2sc3nc[nH]c(=O)c3c2C)n1 66.9%
CN(C)c1ccc(NC(=O)CSc2nnc3c(n2)[nH]c2ccc(Cl)cc23)cc1 108%
COc1cc2cc(C#N)c(SCC(=O)Nc3ccc4c(c3)OCCO4)nc2cc1OC 106%
Cc1ccc(-c2cc3c(N4CCC(C(=O)NC5CCCC5)CC4)nccn3n2)cc1C 96.2%
CCc1nc2c(C)nc(Nc3ccccc3)nc2n1-c1ccccc1 102%
COc1ccc(OC)c2sc(N(Cc3ccncc3)C(=O)COc3ccc(Cl)cc3)nc12 28.1%
CC(C)N1CCc2c(sc(NC(=O)c3ccc(Br)cc3)c2C(N)=O)C1 70.6%
Cc1oc(-c2ccc(F)cc2)nc1C(=O)Nc1cccc(-n2cnnc2)c1 106%
O=C(CSc1nc(O)c2ccccc2n1)N1CCOCC1 101%
COc1ccc(-n2c(=O)[nH]cc(C(=O)N3CCc4ccccc43)c2=O)cc1OC 71.7%
N#C/C(=C\Nc1cc([N+](=O)[O-])ccc1F)c1nc(-c2cccs2)cs1 110%
COc1cccc(-c2cc3nc4c(c(O)n3n2)CCC4)c1 75.1%
Cc1ccc2occ(CN3CCC4(CC3)NC(=O)c3cccnc3N4C)c(=O)c2c1 85.6%
O=C1CC(c2cccc(F)c2)Sc2nc3ccccc3n21 (stereo unspecified) 139%
N#CCn1ccn(-c2ccc3c(c2)OCO3)c(=O)c1=O 126%
O=C(NCc1ccc2c(c1)OCO2)c1c(O)nc2sccn2c1=O 129%
Cc1ccc(NC(=O)CN2CCC(C(=O)c3ccc4c(c3)OCCO4)CC2)cc1Cl 82%
Cn1c(=O)cc2c3c(c(NS(=O)(=O)c4ccc(F)cc4)ccc31)C(=O)c1ccccc1-2 97.7%
CC(C)c1ccc2nc(SCC(=O)NC3CCCC3)c(C#N)cc2c1 99.3%
O=C(NNc1nc2c(Cl)cccc2s1)c1cc(=O)c2ccccc2o1 109%
CC(=O)c1c(C)oc2ccc(NS(=O)(=O)c3cc4c5c(cccc5c3)C(=O)NC4=O)cc12 99.3%
CCc1nc2ccc(NC(=O)C3(C)CC(=O)N=C4C=C(C)C=CN43)cc2[nH]1 (stereo unspecified) 102%
CC/N=C1/SC(CC(=O)Nc2sc(CC)cc2C(=O)OCC)C(=O)N1CC (stereo unspecified) 109%
COc1cccc(CNC(=O)CSc2nnc3c4ccccc4n(C)c3n2)c1 97.7%
CSc1cccc2sc(Nc3ccccc3Cl)nc12 73.5%
Cc1ccc(-n2ncc3c(=O)n(CC(=O)NCc4ccccc4)cnc32)cc1 83.4%
O=C(CSc1nc2c(cnn2-c2ccccc2)c(=O)[nH]1)NCCc1ccccc1 106%
O=C(COc1ccc(Cl)cc1/C=C1\SC(=O)NC1=O)Nc1ccccc1 98%
Cc1ccc(-c2csc(-c3cccn3CC(=O)N3CCCCCC3)n2)cc1 50.8%
O=C(Nc1cccc2ccccc12)C1CCN(c2nnnn2-c2ccccc2)CC1 83.7%
COCCn1c(C)cc(O)c(C(c2ccncc2)N2CCC(C)CC2)c1=O (stereo unspecified) 109%
CC(Oc1ccccc1)C(=O)N1CCC2(CC1)CC(=O)c1ccccc1O2 (stereo unspecified) 107%
NC(=O)c1cc2c(ccc3ccccc32)o/c1=N\NC(=O)c1ccccc1 83.6%
Cc1cc(C)nc(SCc2cc(=O)c(OC(=O)c3ccc4c(c3)OCO4)co2)n1 100%
Cc1ccc(C(=O)NCCn2ccc(C)n2)c(N2CCN(CCO)CC2)n1 80.6%
COc1ccccc1/C=C/C1=NC(=C\c2coc3ccccc3c2=O)/C(=O)O1 80.4%
COc1ccccc1/N=c1\sc(C(C)=O)c(C)n1CCCN1CCOCC1 104%
CC1=C(C(=O)Nc2ccccc2C)C(c2ccc(C)o2)n2c(s/c(=C/c3ccc(O)cc3)c2=O)=N1 (stereo unspecified) 83.1%
COc1ccc(C2NCCc3cc(O)c(O)cc32)cc1OC (stereo unspecified) 105%
O=C(NCc1ccccc1)N1CCCC1c1nc(Cc2ccc(F)cc2)n[nH]1 (stereo unspecified) 102%
COc1cc(C2c3sc(=O)[nH]c3SC3C4CCC(C4)C23)ccc1O (stereo unspecified) 92.2%
O=C(Nc1ccc(F)cc1F)c1nnc(C2CCN(S(=O)(=O)c3c[nH]cn3)CC2)s1 67.6%
O=C(CCCc1nnc2c(=O)n(-c3ccc(Cl)cc3)ccn12)N1CCN(C2CCCCC2)CC1 116%
O=C(CSC1=N/C(=C/c2ccc3c(c2)OCO3)C(=O)N1c1ccccc1)c1ccccc1 111%
O=C(CCN1CCOCC1)N/N=C/c1ccc(OC(=O)c2cccnc2)cc1 95.6%
Cc1[nH]c2nc(CNc3cccc(Cl)c3C)nn2c(=O)c1C 123%
Cc1nn(-c2ccccc2)c2ncc(C(=O)NCCC(C)C)c(NCc3ccc(Cl)cc3)c12 70.2%
O=C(CCCCn1c(=O)[nH]c2ccsc2c1=O)NCC1CCCO1 (stereo unspecified) 114%
CCCC(CCC)C(=O)N1CCC(c2nnc(C(=O)Nc3ccccc3C)s2)CC1 72.9%
COc1cccc(NC(=O)c2nc(N3CCCC3)c3c(C)c(C)n(-c4ccccc4)c3n2)c1 87.4%
O=C(NCc1cccs1)c1cnc2cc3c(cc2c1O)OCCO3 94.4%
COc1ccc(NC(=O)C2CCCN2C(=O)NC2CCCCC2)c(OC)c1 (stereo unspecified) 112%
CCOC(=O)c1oc2ccccc2c1NC(=O)c1cccc([N+](=O)[O-])c1 110%
O=C(NC1CCCC1)c1cc2c(=O)n3ccccc3nc2s1 28.7%
Cc1ccc(CNC(=O)CCc2nc(N3CCCC3)c3c(C)noc3n2)cc1 79.7%
CC(NC(=O)COc1ncnc2onc(-c3cccc(F)c3)c12)c1ccccc1 (stereo unspecified) 75.2%
Cc1ccc(/C=C2/S/C(=N/c3ccc(O)cc3)NC2=O)o1 70.2%

In the list so far, these have an NH in an aromatic ring.
Intracellular bacterial bioluminescence, inactive:
Cc1n[nH]c(SCCNCc2cc3c(C)nn(-c4ccc(F)cc4)c3[nH]c2=O)n1 102%
O=C(Nc1ccc(F)cc1)c1c(O)c2ccccc2[nH]c1=O 121%
O=c1c2sccc2n2c(=S)[nH]nc2n1CC1CCCO1 (stereo unspecified) 84.7%
Cc1ccccc1-c1noc(-c2sc3nc[nH]c(=O)c3c2C)n1 66.9%
CN(C)c1ccc(NC(=O)CSc2nnc3c(n2)[nH]c2ccc(Cl)cc23)cc1 108%
COc1ccc(-n2c(=O)[nH]cc(C(=O)N3CCc4ccccc43)c2=O)cc1OC 71.7%
CCc1nc2ccc(NC(=O)C3(C)CC(=O)N=C4C=C(C)C=CN43)cc2[nH]1 (stereo unspecified) 102%
O=C(CSc1nc2c(cnn2-c2ccccc2)c(=O)[nH]1)NCCc1ccccc1 106%
O=C(NCc1ccccc1)N1CCCC1c1nc(Cc2ccc(F)cc2)n[nH]1 (stereo unspecified) 102%
COc1cc(C2c3sc(=O)[nH]c3SC3C4CCC(C4)C23)ccc1O (stereo unspecified) 92.2%
O=C(Nc1ccc(F)cc1F)c1nnc(C2CCN(S(=O)(=O)c3c[nH]cn3)CC2)s1 67.6%
Cc1[nH]c2nc(CNc3cccc(Cl)c3C)nn2c(=O)c1C 123%
O=C(CCCCn1c(=O)[nH]c2ccsc2c1=O)NCC1CCCO1 (stereo unspecified) 114%

Random excerpt: two entries already listed
Intracellular bacterial bioluminescence, inactive:
Cc1ccc(CSc2nc(=O)n3ccc(C)cc3n2)cc1 51.4%
CSc1cccc2sc(Nc3ccccc3Cl)nc12 73.5%
